# Measured values taken from the supplement of paper PMC8256030.
# Where “and” joins values, the source holds several entries; their conditions need not be identical. Equal values may be shown once. The list shows a part of the results. Single values are uncertain here, since repeats match poorly.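 HEK293T cells were given each compound shortly before transfection with a reporter in which red mCherry is followed by the SARS-CoV-2 frameshift element and then GFP in the −1 frame, so GFP appears only after frameshifting.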
# System: HEK293T
# Experiment: percent viability (nuclei count) relative to control; higher = more viable cells
# Conditions: 10 µM; 24 h
row,Structure (SMILES),percent viability
1,CNC(C)C(O)c1ccccc1 (centres undefined) [racephedrine],205%
2,CC(C)[C@@]1(NC(=O)[C@@H]2C[C@@H]3c4cccc5[nH]cc(c45)C[C@H]3N(C)C2)O[C@@]2(O)[C@@H]3CCCN3C(=O)[C@H](Cc3ccccc3)N2C1=O [Dihydroergocristine],309%
3,C[C@]12C/C(=C/O)C(=O)C[C@@H]1CC[C@@H]1[C@@H]2CC[C@@]2(C)[C@H]1CC[C@]2(C)O [oxymetholone],137%
4,CC(N)C(O)c1ccccc1 (centres undefined) [Phenylpropanolamine],158%
5,CN[C@@H](C)[C@H](O)c1ccccc1 [Ephedra],322%
6,COc1ccc2c3c1O[C@H]1C(=O)CC[C@H]4[C@@H](C2)N(C)CC[C@]314 [hydrocodone],250%
7,C[C@H](N)[C@H](O)c1ccccc1,221% and 177%
8,COc1ccc2c3c1O[C@H]1[C@@H](O)C=C[C@H]4[C@@H](C2)N(C)CC[C@@]341 [Codeine],328%
9,CC(C)C[C@@H](NC(=O)CNC(=O)[C@@H](NC=O)C(C)C)C(=O)N[C@@H](C)C(=O)N[C@@H](C(=O)N[C@H](C(=O)N[C@@H](C(=O)N[C@@H](Cc1c[nH]c2ccccc12)C(=O)N[C@H](CC(C)C)C(=O)N[C@@H](Cc1c[nH]c2ccccc12)C(=O)N[C@H](CC(C)C)C(=O)N[C@@H](Cc1c[nH]c2ccccc12)C(=O)N[C@H](CC(C)C)C(=O)N[C@@H](Cc1c[nH]c2ccccc12)C(=O)NCCO)C(C)C)C(C)C)C(C)C,3.32%
10,CN[C@@H](C)[C@@H](O)c1ccccc1 [pseudoephedrine],245%
11,CN[C@@H](C)[C@H](O)c1ccccc1,145%
12,CCOP(=S)(OCC)Oc1ccc2c(C)c(Cl)c(=O)oc2c1 [coumafos],271%
13,Cc1cccc(C)c1NC1=NCCCS1 [xylazine],294%
14,COc1ccc2c(c1)[nH]c1c(C)nccc12 [Harmine],54.2%
15,CNC(=O)Oc1cccc2ccccc12 [carbaril],203%
16,NC1=N[C@H](O)[C@H]2[C@H]3O[C@]4(O)O[C@@H]([C@@H](O)[C@@]2(N1)[C@@H]4O)[C@]3(O)CO [tetrodotoxin],159%
17,CC1OC(OC2C=C3CCC4C(CCC5(C)C(c6ccc(=O)oc6)CCC45O)C3(C)CC2)C(O)C(O)C1O (centres undefined),3.42%

# System: SARS-CoV-2 -1 PRF reporter mCherry-FSE-GFP(-1)
# Experiment: mCherry (red) intensity as percent of control; higher = higher upstream reporter expression
# Conditions: 10 µM; 24 h; HEK293T
row,Structure (SMILES),mCherry
1,NC(=O)C(c1ccccc1)(c1ccccc1)[C@@H]1CCN(CCc2ccc3c(c2)CCO3)C1,113%
2,CNC(C)C(O)c1ccccc1 (centres undefined) [racephedrine],116%
3,CC(C)[C@@]1(NC(=O)[C@@H]2C[C@@H]3c4cccc5[nH]cc(c45)C[C@H]3N(C)C2)O[C@@]2(O)[C@@H]3CCCN3C(=O)[C@H](Cc3ccccc3)N2C1=O [Dihydroergocristine],30.2%
4,C[C@]12C/C(=C/O)C(=O)C[C@@H]1CC[C@@H]1[C@@H]2CC[C@@]2(C)[C@H]1CC[C@]2(C)O [oxymetholone],84%
5,CC(N)C(O)c1ccccc1 (centres undefined) [Phenylpropanolamine],95%
6,CCc1cccc2cc(C(O)CNC(C)(C)C)oc12 (centres undefined) [bufuralol],68%
7,Cc1ncc(C[n+]2csc(CCO)c2C)c(N)n1,94.1%
8,COc1cc([C@@H]2c3cc4c(cc3[C@@H](O[C@@H]3O[C@@H]5CO[C@@H](C)O[C@H]5[C@H](O)[C@H]3O)[C@H]3COC(=O)[C@H]23)OCO4)cc(OC)c1O [Etoposide],22.5%
9,CN1CCN(c2c(F)cc3c(=O)c(C(=O)O)cn(CCF)c3c2F)CC1 [fleroxacin],59.6%
10,CC(C(=O)O)c1cccc(C(=O)c2ccccc2)c1 (centres undefined) [ketoprofen],88% and 94.8%
11,CN[C@@H](C)[C@H](O)c1ccccc1 [Ephedra],92%
12,O=c1[nH]c(=O)n([C@H]2C[C@H](O)[C@@H](CO)O2)cc1C(F)(F)F [trifluridine],110% and 95.7%
13,C[C@H](C(=O)O)c1cccc(C(=O)c2ccccc2)c1 [dexketoprofen],92.6%
14,COc1ccc2c3c1O[C@H]1C(=O)CC[C@H]4[C@@H](C2)N(C)CC[C@]314 [hydrocodone],89.7%
15,CC(C)NCC(O)COc1cccc2ccccc12 (centres undefined),125%
16,C[C@]12CC[C@@H]3c4ccc(O)cc4CC[C@H]3[C@@H]1C[C@@H](O)[C@@H]2O,118%
17,C[C@H](N)[C@H](O)c1ccccc1,90% and 105%
18,CCOc1cc(NC(C)=O)ccc1C(=O)OC,92.7%
19,CO[C@@]12[C@H](COC(N)=O)C3=C(C(=O)C(C)=C(N)C3=O)N1C[C@@H]1N[C@@H]12,178%

# Three records picked at random from those above, as already listed:
row,Structure (SMILES),mCherry
16,C[C@]12CC[C@@H]3c4ccc(O)cc4CC[C@H]3[C@@H]1C[C@@H](O)[C@@H]2O,118%
19,CO[C@@]12[C@H](COC(N)=O)C3=C(C(=O)C(C)=C(N)C3=O)N1C[C@@H]1N[C@@H]12,178%
2,CNC(C)C(O)c1ccccc1 (centres undefined) [racephedrine],116%

# More records:

row,Structure (SMILES),mCherry
1,COc1ccc2c3c1O[C@H]1[C@@H](O)C=C[C@H]4[C@@H](C2)N(C)CC[C@@]341 [Codeine],101%
2,CN[C@@H](C)[C@@H](O)c1ccccc1 [pseudoephedrine],93.6%
3,CN[C@@H](C)[C@H](O)c1ccccc1,106%
4,CCOP(=S)(OCC)Oc1ccc2c(C)c(Cl)c(=O)oc2c1 [coumafos],112%
5,CCCCC(CC)COC(=O)C=Cc1ccc(OC)cc1 (centres undefined) [octinoxate],77.5%
6,Cc1cccc(C)c1NC1=NCCCS1 [xylazine],85.4% and 88.2%
7,O=C(O)c1cc(/N=N/c2ccc(S(=O)(=O)Nc3ccccn3)cc2)ccc1O,116%
8,CCC1(c2ccccc2)C(=O)NCNC1=O [primidone],110%
9,CN1[C@@H]2CC[C@H]1CC(OC(=O)C(O)c1ccccc1)C2 (some centres undefined),103%
10,O=c1[nH]cnc2c1ncn2[C@H]1CC[C@@H](CO)O1 [Didanosine],114%
11,CN1C(C(=O)Nc2ccccn2)=C(O)c2sccc2S1(=O)=O [tenoxicam],123%
12,COc1ccc2c(c1)[nH]c1c(C)nccc12 [Harmine],49.7%
13,CC(C)NCC(O)COc1cccc2ccccc12 (centres undefined) [propranolol],84.6%
14,CNC(=O)Oc1cccc2ccccc12 [carbaril],109%
15,C(=N\NC1=NCCN1)/c1c2ccccc2c(/C=N/NC2=NCCN2)c2ccccc12 [bisantrene],273%
16,Cc1ncc([N+](=O)[O-])n1CCO [metronidazole],85.1% and 86.4%
17,C[C@]12CC[C@@H]3c4ccc(O)cc4CC[C@H]3[C@@H]1C[C@@H](O)[C@@H]2O [Estriol],68.5%
18,CC(C)NC[C@H](O)COc1cccc2ccccc12 [Propranolol S(-)],85.8%
